# Cleaved PARP in drug-treated melanoma cells

Values as published with doi:10.1371/journal.pone.0140310, rounded.

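Human melanoma cell lines in 1,536-well plates were treated with a pair of drugs for 72 h, then fixed, stained and imaged. Values are the share of nuclei positive for cleaved PARP as a percentage of the same share in the DMSO control: 100 is the control level, higher means more apoptosis. Concentrations were fixed for each drug; these are the higher of two levels. No replicate spread is given; individual values may be noisy. Basal and induced levels differ widely between cell lines.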 An unselected part of the screen is shown. An entry leaves out what has no value listed here. A dash means that no value is listed here.

Drug key:
embelin (6000 nM): CCCCCCCCCCCC1=C(O)C(=O)C=C(O)C1=O
lapatinib (4000 nM): CS(=O)(=O)CCNCc1ccc(-c2ccc3ncnc(Nc4ccc(OCc5cccc(F)c5)c(Cl)c4)c3c2)o1
everolimus (100 nM): CO[C@H]1C[C@@H]2CC[C@@H](C)[C@@](O)(O2)C(=O)C(=O)N2CCCC[C@H]2C(=O)O[C@H]([C@H](C)C[C@@H]2CC[C@@H](OCCO)[C@H](OC)C2)CC(=O)[C@H](C)/C=C(\C)[C@@H](O)[C@@H](OC)C(=O)[C@H](C)C[C@H](C)/C=C/C=C/C=C/1C
cisplatin (8000 nM): N.N.[Cl][Pt][Cl]
vorinostat (400 nM): O=C(CCCCCCC(=O)Nc1ccccc1)NO
PD173074 (500 nM): CCN(CC)CCCCNc1ncc2cc(-c3cc(OC)cc(OC)c3)c(NC(=O)NC(C)(C)C)nc2n1
tozasertib (30 nM): Cc1cc(Nc2cc(N3CCN(C)CC3)nc(Sc3ccc(NC(=O)C4CC4)cc3)n2)n[nH]1
vatalanib (10000 nM): Clc1ccc(Nc2nnc(Cc3ccncc3)c3ccccc23)cc1
bexarotene (10000 nM): C=C(c1ccc(C(=O)O)cc1)c1cc2c(cc1C)C(C)(C)CCC2(C)C
XAV939 (10000 nM): Oc1nc(-c2ccc(C(F)(F)F)cc2)nc2c1CSCC2

Combination,A2058,SK-MEL-30,A101D,UACC-62,RPMI-7951,SK-MEL-2,WM451Lu,WM3526,SK-MEL-5,SK-MEL-28
vatalanib + PD173074,208,105,163,122,104,88.1,335,146,223,78.4
embelin + vorinostat,54.8,73.1,100,133,221,66.1,92.7,64.3,102,140
vorinostat + lapatinib,56.1,364,389,181,223,258,61.2,261,155,162
vorinostat + cisplatin,83.9,276,239,151,47.5,92.8,79.2,177,182,520
PD173074 + cisplatin,118,140,46.9,125,92.4,-,299,68.0,103,28.9
lapatinib + embelin,182,136,89.8,161,160,123,48.8,168,277,147
vorinostat + vatalanib,120,286,128,209,78.4,293,94.9,180,275,112
everolimus + tozasertib,243,59.2,82.3,341,118,107,214,300,126,228
XAV939 + vorinostat,99.8,193,124,183,98.3,155,125,68.6,207,75.7
tozasertib + vatalanib,233,67.2,82.0,163,82.3,60.9,38.9,104,124,29.6
XAV939 + PD173074,154,84.4,53.3,39.1,90.7,115,143,97.4,106,116
vatalanib + cisplatin,137,150,116,161,38.7,74.2,46.1,91.2,102,145
everolimus + PD173074,139,233,60.3,376,65.2,166,571,114,2310,71.0
PD173074 + lapatinib,86.1,203,135,474,219,61.3,129,163,126,56.7
everolimus + embelin,144,64.4,253,366,132,114,108,239,62.1,54.6
embelin + bexarotene,60.2,26.6,109,134,143,58.8,76.0,105,192,55.8
bexarotene + PD173074,37.3,54.9,25.0,137,85.5,94.6,82.0,47.6,25.7,129
embelin + tozasertib,149,94.9,57.3,224,122,122,257,81.5,60.6,92.8
embelin + vatalanib,98.0,39.5,184,134,118,65.0,124,98.5,131,173
bexarotene + everolimus,222,212,185,318,121,145,175,428,119,49.3
cisplatin + embelin,106,174,111,268,65.7,110,100,128,224,192
bexarotene + lapatinib,102,358,93.6,301,320,89.9,97.1,213,566,249
tozasertib + cisplatin,90.3,128,239,67.6,106,94.5,76.4,187,79.6,273
tozasertib + bexarotene,109,89.7,75.8,140,129,151,115,126,69.5,118
tozasertib + lapatinib,238,136,96.8,202,400,185,130,480,75.2,202
XAV939 + cisplatin,107,79.6,313,206,101,177,106,180,262,25.6
everolimus + lapatinib,207,278,37.3,235,28.4,126,63.7,346,136,64.1
XAV939 + vatalanib,131,71.7,102,125,105,114,28.9,104,142,182
cisplatin + everolimus,96.9,114,83.9,229,92.4,150,190,269,162,111
XAV939 + tozasertib,143,110,216,112,237,156,43.2,151,87.0,190
bexarotene + cisplatin,71.5,121,96.2,238,27.9,97.3,75.4,242,33.2,193
vatalanib + lapatinib,175,107,92.5,337,409,112,108,266,893,171
XAV939 + embelin,120,23.5,130,26.6,295,41.9,83.5,68.8,190,82.1
vorinostat + bexarotene,54.6,69.5,45.4,179,167,187,145,69.6,160,361
bexarotene + XAV939,80.3,91.6,127,195,67.3,40.0,160,73.1,77.5,228
everolimus + XAV939,141,216,164,488,108,135,255,142,402,105
tozasertib + vorinostat,122,201,176,157,61.6,214,241,161,162,551
tozasertib + PD173074,59.0,121,96.0,256,112,89.9,778,210,165,64.3

Some entries from above, unchanged:

{"combination": "tozasertib + vorinostat", "A2058": 122, "SK-MEL-30": 201, "A101D": 176, "UACC-62": 157, "RPMI-7951": 61.6, "SK-MEL-2": 214, "WM451Lu": 241, "WM3526": 161, "SK-MEL-5": 162, "SK-MEL-28": 551}
{"combination": "everolimus + tozasertib", "A2058": 243, "SK-MEL-30": 59.2, "A101D": 82.3, "UACC-62": 341, "RPMI-7951": 118, "SK-MEL-2": 107, "WM451Lu": 214, "WM3526": 300, "SK-MEL-5": 126, "SK-MEL-28": 228}
{"combination": "XAV939 + vorinostat", "A2058": 99.8, "SK-MEL-30": 193, "A101D": 124, "UACC-62": 183, "RPMI-7951": 98.3, "SK-MEL-2": 155, "WM451Lu": 125, "WM3526": 68.6, "SK-MEL-5": 207, "SK-MEL-28": 75.7}